According to patent publication US5723103A, “Substituted benzamides and radioligand analogs and methods of use” (Vanderbilt University, priority 1994, dated 1998):

Target: T1, 5-HT-3 receptor (Rattus norvegicus, UniProt P35563)
T1 sequence (P35563 24-483): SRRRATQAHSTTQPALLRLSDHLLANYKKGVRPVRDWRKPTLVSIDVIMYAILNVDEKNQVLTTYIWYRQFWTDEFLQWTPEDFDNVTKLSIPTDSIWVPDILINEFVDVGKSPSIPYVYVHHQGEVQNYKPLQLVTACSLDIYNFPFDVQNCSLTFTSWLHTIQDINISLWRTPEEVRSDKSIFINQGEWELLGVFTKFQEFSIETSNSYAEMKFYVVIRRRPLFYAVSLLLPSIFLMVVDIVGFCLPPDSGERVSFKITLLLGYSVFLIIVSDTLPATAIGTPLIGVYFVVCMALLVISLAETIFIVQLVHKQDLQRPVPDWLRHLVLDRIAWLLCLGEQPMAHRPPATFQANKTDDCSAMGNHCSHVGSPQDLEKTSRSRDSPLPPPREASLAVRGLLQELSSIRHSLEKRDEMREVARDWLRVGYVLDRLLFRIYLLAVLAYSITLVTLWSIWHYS

## CN1CCN2c3ccccc3Cc3ccccc3C2C1 (stereo not shown) [mianserin]
  Ki: 39 nM
